# Results: PubChem BioAssay AID540276 (National Center for Advancing Translational Sciences (NCATS), 2011)
# In all, about 300,000 compounds went through this assay and about 5,400 (1.8%) were called active. Inconclusive results, whose numbers are uncertain, are shown with a selection of clear calls. Calls follow the shape of the full dose curve; tested in HEK293 cells. Potencies beside an inconclusive call are fits to weak or partial responses and may not hold up.
# Assay: qHTS for inhibitors of binding or entry into cells for Marburg Virus
# Conditions: Marburg virus pseudotyped entry inhibition, cell reporter; series mostly up to 37.8 µM
# Potency is read from the fitted curve at half-maximal effect.
row,Structure (SMILES),Potency
1,CCOC(=O)c1nnn2c1nc(N1CCOCC1)c1ccccc12,inactive
2,CN1CCN(NS(=O)(=O)c2ccc(Cl)s2)CC1,"inconclusive: 0.562 µM [activator, full curve, poor fit]"
3,CC(C)(C)c1cc(NC(=O)c2cccc([N+](=O)[O-])c2)no1,inactive
4,CCN1/C(=C2\C(=O)N(C)C(=S)N2C)C=Cc2cc(OC)ccc21,"inconclusive: 6.31 µM [activator, single point]"
5,COc1ccc(N(CC(=O)NCCSc2ccccn2)S(=O)(=O)c2ccc(C)cc2)cc1OC,inactive
6,Cc1cccc(N2C(=O)/C(=C/c3cccnc3)SC2=S)c1,"inconclusive: 17.8 µM [inhibitor, single point]"
7,CN1C2CCC1CC(OC(=O)c1cc(Cl)cc(Cl)c1)C2 (stereo unspecified),active: 7.08 µM
8,COc1ccc(CC(=O)N2CCN(c3ccccc3F)CC2)cc1OC,"inconclusive: 35.5 µM [inhibitor, single point]"
9,Cn1c(=N)n(CC(O)c2cccs2)c2ccccc21 (stereo unspecified),"inconclusive: 3.16 µM [activator, single point]"
10,CCc1nnc(NC(=O)c2cc(S(=O)(=O)N3CCCCC3)ccc2N2CCOCC2)s1,"inconclusive: 11.2 µM [activator, partial curve, poor fit]"
11,CCc1ccc(-c2nc(NC(=S)NC(=O)c3cccs3)sc2C)cc1,inactive
12,CCCn1cnc2sc(C(N)=O)c(C)c2c1=O,inactive
13,S=C(NCCSCc1ccccc1Cl)Nc1ccccc1,"inconclusive: 22.4 µM [inhibitor, single point]"
14,O=C(Nc1ccc(Br)cn1)c1ccc2nccnc2c1,"inconclusive: 14.1 µM [inhibitor, single point]"
15,CC(=O)Nc1ccc(S(=O)(=O)NC2(C(F)(F)F)NC(=O)N(c3ccc(Cl)cc3)C2=O)cc1 (stereo unspecified),"inconclusive: 6.31 µM [activator, single point]"
16,COc1ccccc1NC(=S)NC(=O)C1CC1,"inconclusive: 1.26 µM [activator, single point]"
17,Cc1ccc(NC(=O)COC(=O)c2ccc(OCc3c(C)noc3C)cc2)cc1S(=O)(=O)N1CCOCC1,"inconclusive: 3.16 µM [activator, single point]"
18,CCN(C(=O)CN1C(=O)S/C(=C\c2cccc(OC)c2)C1=O)C1CCS(=O)(=O)C1 (stereo unspecified),"inconclusive: 6.31 µM [activator, single point]"
19,CCCCN(CC)C(=O)Nc1ccc2c(c1)N(C)C(=O)c1ccccc1S2,"inconclusive: 35.5 µM [inhibitor, single point]"
20,CCC(C)(C(=O)NC1CCCCC1)N(C(=O)CC1NC(=O)NC1=O)c1c(C)n(C)n(-c2ccccc2)c1=O (stereo unspecified),inactive
21,CCOc1ccccc1NC(=O)CN1CCc2ccccc2C1,"inconclusive: 17.8 µM [inhibitor, single point]"
22,COc1ccc(-c2nc3cc(C)ccn3c2NC(=O)c2cccc(F)c2)cc1,"inconclusive: 35.5 µM [activator, single point]"
23,Cn1c(C(=O)NCC2CCCO2)cc2c(=O)n(C)c3ccccc3c21 (stereo unspecified),inactive
24,Cn1c(SC2=CS(=O)(=O)c3ccccc32)nc2ccccc21,"inconclusive: 8.91 µM [inhibitor, partial curve, poor fit]"

# Structural class, the compounds so far with an aryl thioether with sulfur outside any ring
row,Structure (SMILES),Potency
5,COc1ccc(N(CC(=O)NCCSc2ccccn2)S(=O)(=O)c2ccc(C)cc2)cc1OC,inactive
24,Cn1c(SC2=CS(=O)(=O)c3ccccc32)nc2ccccc21,"inconclusive: 8.91 µM [inhibitor, partial curve, poor fit]"

# Next part.

row,Structure (SMILES),Potency
1,COc1cc(/C=N/Nc2nc(Nc3ccccc3)nc(N3CCCCC3)n2)ccc1OCC(=O)O,inactive
2,Cc1cc(C)cc(NC(=O)CSc2nnc(NC(=O)C3CC3)s2)c1,inactive
3,CCCCC(O)CN1CCC(c2ccccc2)CC1 (stereo unspecified),"inconclusive: 35.5 µM [inhibitor, single point]"
4,COc1ccc(NC(=O)c2cccn(CC=C(C)C)c2=O)cc1,inactive
5,CC(C)C(=O)NC(NC(=S)NC1CCS(=O)(=O)C1)C(Cl)(Cl)Cl (stereo unspecified),"inconclusive: 29.1 µM [activator, single point]"
6,CCN(CC(=O)NC1CCS(=O)(=O)C1)S(=O)(=O)c1ccc(Cl)c(C(F)(F)F)c1 (stereo unspecified),"inconclusive: 0.1 µM [inhibitor, full curve, poor fit]"
7,CN(C)CCCNC(=O)COc1ccc(Br)cc1Cl,"inconclusive: 6.31 µM [inhibitor, single point]"
8,CCCC(=O)NC(=S)Nc1cccc(Cl)c1N1CCCCC1,"inconclusive: 23.1 µM [inhibitor, single point]"
9,CCSc1ncc(Cl)c(C(=O)Nc2c(C(=O)Nc3ccccc3)oc3ccccc23)n1,inactive
10,Cc1nnc(SCC(=O)Nc2ccc(O)cc2)c2ccccc12,"inconclusive: 0.562 µM [inhibitor, full curve, poor fit]"
11,Cc1[nH]c2ccc(F)cc2c(=O)c1SC(F)(F)[C@@H](F)C(F)(F)F,inactive
12,O=C(NCC(c1ccco1)N1CCOCC1)c1ccc(F)c(F)c1 (stereo unspecified),inactive
13,O=C(O)c1cc(N/N=C/c2c(O)ccc3ccccc23)ccc1Cl,inactive
14,CN(C)S(=O)(=O)c1cccc(NC(=O)CSc2nc3c(cc2C#N)C(=O)CC(C)(C)C3)c1,"inconclusive: 10 µM [inhibitor, partial curve, poor fit]"
15,CCCc1nnc(NC(=O)CCC(=O)NC2CCCc3ccccc32)s1 (stereo unspecified),"inconclusive: 6.31 µM [activator, full curve, poor fit]"
16,O=C(NCCc1ccccc1)c1cc(-c2ccco2)on1,inactive
17,CSc1ccccc1NC(=O)CN(C)CC(=O)Nc1ccc(N2CCOCC2)cc1,"inconclusive: 3.55 µM [activator, partial curve, poor fit]"
18,OCCCCCNc1ncnc2ccccc12,"inconclusive: 0.891 µM [inhibitor, partial curve, poor fit]"
19,COc1ccc(N(C)S(=O)(=O)c2cccc(C(=O)N3CCN(Cc4ccc5c(c4)OCO5)CC3)c2)cc1,"inconclusive: 11.2 µM [inhibitor, partial curve]"
20,CC(=O)Nc1ccc(S(=O)(=O)N(C)CC(=O)OC(C)C(=O)NC2CCCCC2)cc1 (stereo unspecified),"inconclusive: 31.6 µM [activator, single point]"
21,Cc1ccc(NC(=O)CCNS(=O)(=O)c2ccc3c(c2)oc(=O)n3C)c(C)c1,inactive
22,O=C(NC(=S)Nc1ccc(N2CCOCC2)cc1)c1ccc2c(c1)OCCO2,inactive
23,COC(=O)COc1ccc(C(=O)OC)cc1,"inconclusive: 23.1 µM [activator, single point]"
24,Cc1ccc(C(=O)NCc2ccccc2F)cc1S(=O)(=O)N1CCCC1,"inconclusive: 31.6 µM [inhibitor, partial curve, poor fit]"

row,Structure (SMILES),Potency
1,CN1/C(=C\C(=O)Nc2cccnc2)c2ccccc2CC1(C)C,inactive
2,COc1ccc(/C=C/c2ccncc2)cc1OC,inactive
3,O=C(O/N=C/c1ccc(Br)cc1)c1ccc(F)cc1,inactive
4,Cc1ccc2c(c1C)OC(=O)CC2(C)C,"inconclusive: 2.51 µM [inhibitor, single point]"
5,COc1ccc(C(=O)Nc2ccc(C(=O)Nc3cccnc3)cc2)cc1,"inconclusive: 17.8 µM [inhibitor, single point]"
6,O=C(NCC1(c2ccccc2)CCCC1)C(=O)NCC1(c2ccccc2)CCCC1,"inconclusive: 22.4 µM [activator, single point]"
7,COc1cccc(C2CC(c3cccs3)=NN2C(=S)Nc2ccccc2)c1OC (stereo unspecified),inactive
8,COc1ccc(CNC(=O)CCOc2ccc(C(C)(C)C)cc2)cc1,inactive
9,Cc1ccc2c(c1)C1(C(=O)N2)N2CCCC2C(C(=O)c2ccc3ccccc3c2)C12C(=O)Nc1ccccc12 (stereo unspecified),"inconclusive: 35.5 µM [inhibitor, single point]"
10,COc1ccc(S(=O)(=O)N2CCc3ccccc3C2)cc1,"inconclusive: 7.08 µM [inhibitor, partial curve, poor fit]"
11,O=C(O)C1C2C=CC(C2)C1C(=O)NCc1cccnc1 (stereo unspecified),"inconclusive: 1.3 µM [inhibitor, full curve]"
12,Cc1ccc(CSc2nn3c(=O)c(C)nnc3s2)cc1,"inconclusive: 1.26 µM [activator, partial curve, poor fit]"
13,COCCNC(=O)CSc1nc(-c2ccccc2)cs1,inactive
14,Clc1ccc(CSc2snnc2-c2ccccc2)c(Cl)c1,inactive
15,CCCn1c(N)c(N(CCOC)C(=O)CSCC(=O)Nc2cccc(C)c2)c(=O)[nH]c1=O,inactive
16,Cc1ccc(/C=N/c2sc(Cc3ccccc3)c(C)c2C(N)=O)o1,"inconclusive: 8.91 µM [inhibitor, partial curve, poor fit]"
17,O=C(CCCCn1c(=O)c2ccccc2n(Cc2cccc(F)c2)c1=O)NCc1ccc2c(c1)OCO2,"inconclusive: 2.51 µM [inhibitor, single point]"
18,CCc1ccc(N2C(=O)CC(N(CC3CCCO3)C(=O)/C=C/C(=O)O)C2=O)cc1 (stereo unspecified),"inconclusive: 20.6 µM [activator, partial curve, poor fit]"
19,COc1ccccc1C(=O)COC(=O)c1nc2nc(C)cc(C)n2n1,"inconclusive: 5.62 µM [activator, single point]"
20,COc1cccc(/C=C2\SC(=S)N(CCCC(=O)N3CCCC3)C2=O)c1,"inconclusive: 25.1 µM [inhibitor, single point]"
21,CCOc1cc(C2c3c(oc4ccccc4c3=O)C(=O)N2Cc2ccc(OC)cc2)ccc1O (stereo unspecified),"inconclusive: 35.5 µM [activator, single point]"
22,OC(CNCc1cccc(Br)c1)c1ccccc1 (stereo unspecified),"inconclusive: 35.5 µM [inhibitor, single point]"
23,C=CCN(C(=O)CCC(=O)Nc1cc(C)on1)C(C(=O)NC(C)(C)C)c1ccc(OC)cc1 (stereo unspecified),"inconclusive: 11.2 µM [inhibitor, single point]"

# Gathered by group, the compounds so far with a Cl atom (11)
row,Structure (SMILES),Potency
2,CN1CCN(NS(=O)(=O)c2ccc(Cl)s2)CC1,"inconclusive: 0.562 µM [activator, full curve, poor fit]"
7,CN1C2CCC1CC(OC(=O)c1cc(Cl)cc(Cl)c1)C2 (stereo unspecified),active: 7.08 µM
13,S=C(NCCSCc1ccccc1Cl)Nc1ccccc1,"inconclusive: 22.4 µM [inhibitor, single point]"
15,CC(=O)Nc1ccc(S(=O)(=O)NC2(C(F)(F)F)NC(=O)N(c3ccc(Cl)cc3)C2=O)cc1 (stereo unspecified),"inconclusive: 6.31 µM [activator, single point]"
5,CC(C)C(=O)NC(NC(=S)NC1CCS(=O)(=O)C1)C(Cl)(Cl)Cl (stereo unspecified),"inconclusive: 29.1 µM [activator, single point]"
6,CCN(CC(=O)NC1CCS(=O)(=O)C1)S(=O)(=O)c1ccc(Cl)c(C(F)(F)F)c1 (stereo unspecified),"inconclusive: 0.1 µM [inhibitor, full curve, poor fit]"
7,CN(C)CCCNC(=O)COc1ccc(Br)cc1Cl,"inconclusive: 6.31 µM [inhibitor, single point]"
8,CCCC(=O)NC(=S)Nc1cccc(Cl)c1N1CCCCC1,"inconclusive: 23.1 µM [inhibitor, single point]"
9,CCSc1ncc(Cl)c(C(=O)Nc2c(C(=O)Nc3ccccc3)oc3ccccc23)n1,inactive
13,O=C(O)c1cc(N/N=C/c2c(O)ccc3ccccc23)ccc1Cl,inactive
14,Clc1ccc(CSc2snnc2-c2ccccc2)c(Cl)c1,inactive
